{"sequences": {"note": "Chains of the proteins cited; added tags and fusions are not shown.", "UniProt Q8VEK3": "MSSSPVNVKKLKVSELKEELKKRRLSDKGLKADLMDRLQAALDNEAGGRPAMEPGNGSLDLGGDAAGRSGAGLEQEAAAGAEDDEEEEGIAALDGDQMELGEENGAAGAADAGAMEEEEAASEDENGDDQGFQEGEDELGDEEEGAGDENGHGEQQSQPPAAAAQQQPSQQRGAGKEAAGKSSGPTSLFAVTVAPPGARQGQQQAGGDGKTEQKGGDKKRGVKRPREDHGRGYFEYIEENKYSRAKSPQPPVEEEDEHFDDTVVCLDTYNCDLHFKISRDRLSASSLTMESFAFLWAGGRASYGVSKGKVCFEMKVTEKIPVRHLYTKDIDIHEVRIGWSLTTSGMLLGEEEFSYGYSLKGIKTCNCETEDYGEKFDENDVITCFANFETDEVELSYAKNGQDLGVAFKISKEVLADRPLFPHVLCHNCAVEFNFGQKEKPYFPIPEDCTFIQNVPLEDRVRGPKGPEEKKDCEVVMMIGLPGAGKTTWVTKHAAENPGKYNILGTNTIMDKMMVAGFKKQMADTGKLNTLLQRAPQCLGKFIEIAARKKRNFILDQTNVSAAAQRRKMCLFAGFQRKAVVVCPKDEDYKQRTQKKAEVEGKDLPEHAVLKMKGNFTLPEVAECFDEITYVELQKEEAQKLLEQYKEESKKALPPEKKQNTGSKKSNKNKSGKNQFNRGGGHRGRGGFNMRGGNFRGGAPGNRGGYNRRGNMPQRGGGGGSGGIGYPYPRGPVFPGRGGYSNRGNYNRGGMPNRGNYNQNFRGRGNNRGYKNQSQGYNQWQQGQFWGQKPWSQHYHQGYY", "UniProt P22561": "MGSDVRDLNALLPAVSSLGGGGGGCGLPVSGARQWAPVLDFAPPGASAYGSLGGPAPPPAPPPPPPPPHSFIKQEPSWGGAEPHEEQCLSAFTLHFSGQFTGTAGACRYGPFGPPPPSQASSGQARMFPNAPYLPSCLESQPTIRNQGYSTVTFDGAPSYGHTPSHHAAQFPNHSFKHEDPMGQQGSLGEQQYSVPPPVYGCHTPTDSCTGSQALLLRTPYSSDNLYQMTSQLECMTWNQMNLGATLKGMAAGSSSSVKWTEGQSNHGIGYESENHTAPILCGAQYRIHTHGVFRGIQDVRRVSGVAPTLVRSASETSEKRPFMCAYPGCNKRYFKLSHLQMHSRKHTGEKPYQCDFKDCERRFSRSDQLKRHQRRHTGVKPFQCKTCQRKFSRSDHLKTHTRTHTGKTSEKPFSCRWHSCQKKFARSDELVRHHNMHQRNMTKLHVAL"}, "source": "paper PMC8581416", "target": "hnRNPU (mouse (endogenous in testis)) (UniProt Q8VEK3)", "experiment": "affinity purification with mass spectrometry; immunoprecipitation with an anti-hnRNPU antibody from mouse testes, followed by LC/MS", "note": "No constants are given. Whether binding was seen depends on the method and setting. Binding seen in cells or lysates may run through a third protein. Here binding means that the protein was enriched with, or labelled near, the bait; the list need not be complete."}
{"substance": "Wilms' tumor 1 (WT1) (from UniProt P22561 1-449)", "values": [{"measurement": "binding", "value": "binds"}]}
